According to PubChem BioAssay AID1347075 (National Center for Advancing Translational Sciences (NCATS), 2019):
Out of some 400,000 compounds screened, about 5,500 (1.4%) were called active. Inconclusive means that the source gave no clear call. Such entries were picked first, then a sample of the others. Calls follow the shape of the dose curve; as a rule, active = well fitted cell-killing curve with a large enough effect; inconclusive = small, poorly fitted or top-dose-only effect, or effect the other way; inactive = flat fitted curve, though single readings scatter. A potency beside an inconclusive call is a rough fit, not a confirmed value.

Assay: qHTS assay for MDR1-selective chemotherapeutics: Primary screen using the parental adenocarcinoma cell KB-3-1; also: nearly all actives have a fitted effect of over 60% in size
Details: KB-3-1 viability, CellTiter-Glo ATP luminescence, 72 h; activity change, negative = cytotoxic: at 46.1 µM (top of the series)
Source text: A prime difficulty in effectively treating cancer is the development of cellular resistance to multiple structurally unrelated anticancer drugs, a phenomenon known as multidrug resistance (MDR). […] Numerous strategies to overcome P-gp-mediated MDR have been explored, including the design of drugs that evade recognition and efflux, and development of inhibitors to block efflux and restore drug accumulation. […] An alternative approach is to exploit resistance by identifying drugs that target MDR cells over the non-resistant parental cells from which they were selected. […] The development of MDR1-selective agents represents a new strategy for resolving multidrug resistance, as it remains a long-standing clinical challenge for cancer chemotherapy.
Our goal is to identify compounds that selectively kill P-gp-expressing MDR cells. We will identify MDR1-selective compounds by comparing toxicity of compounds in the screening library against parental, drug-naive (KB-3-1) adenocarcinoma cells as well as their drug-selected MDR sub-line (KB-V1). The differential toxicity of compounds against these two cell lines will be used to identify MDR1-selective compounds, whose cytotoxicity is potentiated, rather than diminished, by P-gp expression. This assay will be utilized to conduct a quantitative high-throughput screen (qHTS) in collaboration with the NIH Chemical Genomics Center to identify selective agents, and probe hits arising from the screen will be validated using secondary assays and characterized through a well-established follow-up research program. This screen was run against the entire NCGC library collection of about 400,000 compounds.
NIH Molecular Libraries Probe Production Network [MLPCN]
NIH Chemical Genomics Center [NCGC]
PI: Michael Gottesman PhD, National Cancer Institute, NIH
Briefly, 5 microL of media containing either KB-3-1 cells (columns 1-2, 4-48) are dispensed into Greiner white, treated solid-bottom 1536-well assay plates (media-only control is added to column 3). Compounds are then transferred via Kalypsys pin tool equipped with 1536-pin array (10 nL slotted pins, V&P Scientific, San Diego, CA). Following addition of compound, the plates are incubated at 37 degrees C for 72 hours. CellTiter-Glo (2.5 µL/well) is then added, and the plates are read in a ViewLux reader (Perkin-Elmer, clear luminescence filter, 1 second exposure, 1x binning) following a 10 minute incubation. All cells are dispensed in DMEM phenol-red free media containing 10% FBS.
Library plates were screened starting from the lowest and proceeding to the highest concentration. Vehicle-only plates, with DMSO being pin-transferred to columns 5-48, will be inserted uniformly at the beginning and the end of each library in order to monitor and record any shifts in the background, which can be affected by reagent dispensers or loss in enzyme activity over time. Screening data will be corrected, normalized, and concentration-effect relationships will be derived by using publicly-available NCGC, NCATS curve fitting algorithms (http://ncgc.nih.gov/pub/openhts).
% is scaled to controls: 0 for no effect and ±100 for the full control effect; potency is read from the fitted curve at half-maximal effect.

**Q.** For `CN(C(=O)CCn1c(=S)oc2ccccc21)c1ccc(F)cc1`, which “activity change, negative = cytotoxic” value is on record?
**A.** Its value is inactive: 3.43%.

**Q.** With `Clc1ccc(CN2CCc3c([nH]c4ccccc34)C2)cc1Cl` as the compound, how does the Potency read?
**A.** The Potency was inconclusive: 29.1 µM [cytotoxic, single point].

**Q.** Which Potency does the source give for `COCCN(C(=O)COC(=O)c1cc2ccccc2cc1O)c1c(N)n(Cc2ccccc2)c(=O)[nH]c1=O` here?
**A.** The Potency was inconclusive: 11.6 µM [rising, partial curve].

**Q.** With `Cc1c(O)cccc1C(=O)N[C@@H](CSc1ccccc1)[C@H](O)CN1C[C@H]2CCCC[C@H]2C[C@H]1C(=O)NC(C)(C)C` as the compound, how does the Potency read?
**A.** The Potency was inconclusive: 29.1 µM [cytotoxic, single point].

**Q.** For `COc1ccc(/C=C2\SC(=S)N(N3C(=O)CCC3=O)C2=O)cc1O`, which activity change, negative = cytotoxic is on record?
**A.** The activity change, negative = cytotoxic was inconclusive: 7.24%.

**Q.** For `Cc1cc2cc(CNC(=O)Cc3cccs3)ccc2n1C`, which “activity change, negative = cytotoxic” value is on record?
**A.** Its value is inactive: -24.2%.

**Q.** For `CCC(=O)N1CCC1(C)C(=O)Nc1ccc(OC(F)F)cc1` (stereo unspecified), which “activity change, negative = cytotoxic” value is on record?
**A.** Its value is inactive: 0%.

**Q.** Which “activity change, negative = cytotoxic” value does the source give for `C=CCC1(CC=C)CCCN1C(=O)C1CCC(=O)N(CCc2ccccc2)C1` (stereo unspecified) here?
**A.** Its value is inactive: -28.4%.

**Q.** With `COc1ccc(-c2nc3cc(NC(=O)c4ccc(C)cc4)ccc3o2)cc1Cl` as the compound, how does the Potency read?
**A.** Its Potency is inconclusive: 25.9 µM [cytotoxic, single point].

**Q.** Which “activity change, negative = cytotoxic” value does the source give for `COC(=O)C1CSC(c2ccc(Cl)cc2)N1C(=O)c1ccccc1` (stereo unspecified) here?
**A.** The value was inactive: 6.74%.

**Q.** For `Cc1ccc(C(=O)N2CCC(C)CC2)cc1NC(=O)c1nsc2ccccc12`, which “activity change, negative = cytotoxic” value is on record?
**A.** The value was inactive: 1.76%.

**Q.** For `Cc1cccc(-c2nc(CN3CCCC(C(=O)NC4CCCCC4)C3)c(C)o2)c1` (stereo unspecified), which Potency is on record?
**A.** The Potency was inconclusive: 16.4 µM [cytotoxic, single point].

**Q.** With `COc1ccc(CCNc2ncnc3onc(C)c23)c(OC)c1` as the compound, how does the Potency read?
**A.** The Potency was inconclusive: 2.31 µM [cytotoxic, full curve, poor fit].

**Q.** For `O=C(CSc1nnc(-c2cccnc2)n1Cc1ccco1)N1c2ccccc2Sc2ccccc21`, which “activity change, negative = cytotoxic” value is on record?
**A.** The value was inactive: 16.1%.

**Q.** Which “activity change, negative = cytotoxic” value does the source give for `COCCCn1c(=N)c(C(=O)NC2CCCCC2)cc2c(=O)n3cc(C)ccc3nc21` here?
**A.** Its value is inactive: -0.245%.

**Q.** With `O=C1c2ccccc2S(=O)N1c1cccc(F)c1` (stereo unspecified) as the compound, how does the Potency read?
**A.** Its Potency is inconclusive: 29.1 µM [rising, single point].

**Q.** For `CC(=O)Nc1ccc(C(=O)OCC(=O)NCc2ccc3c(c2)OCO3)cc1`, which Potency is on record?
**A.** The Potency was inconclusive: 16.4 µM [rising, single point].

**Q.** Which activity change, negative = cytotoxic does the source give for `Cc1noc(C)c1C(=O)OCC(=O)Nc1ccc(C(N)=O)cc1` here?
**A.** The activity change, negative = cytotoxic was inconclusive: 30%.

**Q.** With `CCc1cc(OCCCCNCc2ccccc2)ccc1Cl` as the compound, how does the Potency read?
**A.** Its Potency is inconclusive: 23.1 µM [cytotoxic, single point].

**Q.** With `COC(=O)Nc1ccc2c(c1)N(C(=O)CCN(C)C)c1ccccc1CC2` as the compound, how does the Potency read?
**A.** The Potency was inconclusive: 0.0184 µM [cytotoxic, full curve].

**Q.** Which Potency does the source give for `COc1ccc(S(=O)(=O)N2CC3CCCN3c3cc(C(F)(F)F)ccc32)cc1` (stereo unspecified) here?
**A.** Its Potency is inconclusive: 29.1 µM [cytotoxic, single point].
